Data on one substance can be found in publication PMC12608094, “STN1 Shields CTC1 From TRIM32‐Mediated Ubiquitination to Prevent Cellular Aging” (Aging Cell, 2025).

Protein sequences, listed by entry. Tags and fused reporters are not part of them.
UniProt Q96AP0: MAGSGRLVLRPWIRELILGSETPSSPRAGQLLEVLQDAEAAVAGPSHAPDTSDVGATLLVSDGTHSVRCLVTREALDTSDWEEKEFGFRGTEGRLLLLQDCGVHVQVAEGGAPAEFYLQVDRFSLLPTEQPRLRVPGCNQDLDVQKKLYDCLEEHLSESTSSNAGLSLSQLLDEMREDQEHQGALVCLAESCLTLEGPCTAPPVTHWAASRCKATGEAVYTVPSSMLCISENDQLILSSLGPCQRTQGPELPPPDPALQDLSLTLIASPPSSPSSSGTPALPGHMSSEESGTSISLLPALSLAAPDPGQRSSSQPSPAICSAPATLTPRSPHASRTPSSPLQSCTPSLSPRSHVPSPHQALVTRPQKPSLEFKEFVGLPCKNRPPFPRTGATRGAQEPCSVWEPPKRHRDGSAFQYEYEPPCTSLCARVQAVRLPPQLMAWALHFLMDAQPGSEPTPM

Results are given in words; binding and its absence hold for the method and conditions named. In cells and extracts the contact can be indirect. Some results given as binding are weak or reduced against the parent protein; the word gives no strength.

In the assay the target is T1, YFPc-CTC1 (human) (UniProt Q2NKJ3).
T1 sequence: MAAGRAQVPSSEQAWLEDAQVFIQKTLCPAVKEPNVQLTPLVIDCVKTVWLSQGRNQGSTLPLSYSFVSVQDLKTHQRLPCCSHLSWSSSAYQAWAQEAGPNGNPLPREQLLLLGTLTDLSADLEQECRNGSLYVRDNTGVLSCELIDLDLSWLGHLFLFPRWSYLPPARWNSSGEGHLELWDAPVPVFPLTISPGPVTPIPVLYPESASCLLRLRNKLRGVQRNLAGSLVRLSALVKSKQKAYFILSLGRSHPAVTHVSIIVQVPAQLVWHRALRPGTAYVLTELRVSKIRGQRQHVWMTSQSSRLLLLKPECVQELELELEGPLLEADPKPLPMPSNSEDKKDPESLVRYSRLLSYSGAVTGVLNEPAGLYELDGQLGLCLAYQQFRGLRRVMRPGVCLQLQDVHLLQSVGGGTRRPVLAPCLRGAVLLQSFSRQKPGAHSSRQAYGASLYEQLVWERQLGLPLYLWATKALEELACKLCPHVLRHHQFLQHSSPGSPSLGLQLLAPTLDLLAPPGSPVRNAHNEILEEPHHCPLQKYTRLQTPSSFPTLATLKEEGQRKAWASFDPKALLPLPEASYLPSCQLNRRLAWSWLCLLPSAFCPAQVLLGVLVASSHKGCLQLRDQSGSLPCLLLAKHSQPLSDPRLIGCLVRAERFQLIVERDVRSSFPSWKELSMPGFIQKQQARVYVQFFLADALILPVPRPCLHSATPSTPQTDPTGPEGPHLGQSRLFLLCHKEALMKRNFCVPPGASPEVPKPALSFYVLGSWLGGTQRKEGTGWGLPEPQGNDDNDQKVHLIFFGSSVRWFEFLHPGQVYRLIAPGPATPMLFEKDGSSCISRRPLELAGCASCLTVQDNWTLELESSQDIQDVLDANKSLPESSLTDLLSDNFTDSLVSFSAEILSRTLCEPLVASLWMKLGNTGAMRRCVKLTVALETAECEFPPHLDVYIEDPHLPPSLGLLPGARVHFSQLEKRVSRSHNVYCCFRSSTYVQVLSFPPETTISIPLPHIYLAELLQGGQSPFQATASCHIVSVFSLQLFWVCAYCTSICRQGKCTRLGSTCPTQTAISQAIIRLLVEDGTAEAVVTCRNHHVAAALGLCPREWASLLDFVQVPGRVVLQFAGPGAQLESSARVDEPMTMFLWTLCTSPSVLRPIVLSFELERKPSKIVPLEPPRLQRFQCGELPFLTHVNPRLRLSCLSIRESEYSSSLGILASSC
In words: split reporter; BiFC with YFPn and YFPc fragments in HEK293T cells; YFP signals read by flow cytometry 48 h after transfection.

On to YFPn-TPP1 (from UniProt Q96AP0 1-458), for which the binding entry is “binds”.
